Experiments:
[1] = test system: RK3E-Transgene TACC3-V3 (FGFR fusion stably transfected RK3E cells); experiment: Drug response testing (Cell Titer-Glo proliferation), RK3E FGFR3:TACC3 v3; conditions: Rattus norvegicus, 72 h, read-out: Stimulated Proliferation (IC50)
RK3E-Transgene KRAS = experiment: Drug response testing (Cell Titer-Glo proliferation), RK3E KRAS; conditions: Rattus norvegicus, 72 h, read-out: Stimulated Proliferation (IC50)
[2] = test system: RK3E-Transgene TACC3-V1 (FGFR fusion stably transfected RK3E cells); experiment: Drug response testing (Cell Titer-Glo proliferation), RK3E FGFR3:TACC3 v1; conditions: Rattus norvegicus, 72 h, read-out: Stimulated Proliferation (IC50)
[3] = test system: FGFR fusion stably transfected RK3E cells; experiment: Drug response testing for FGFR-fusion overexpressing cell lines (overall statement); conditions: empty vector control did not show sensitivity
[4] = test system: RK3E-Transgene Vector (empty vector control RK3E cells); experiment: Drug response testing (Cell Titer-Glo proliferation), RK3E empty vector control; conditions: Rattus norvegicus, 72 h, read-out: Stimulated Proliferation (IC50)

COc1cc(OC)cc(N(CCNC(C)C)c2ccc3ncc(-c4cnn(C)c4)nc3c2)c1 [JNJ-42756493, N-(3,5-dimethoxyphenyl)-N′-(1-methylethyl)-N-[3-(1-methyl-1H-pyrazol-4-yl)quinoxalin-6-yl]ethane-1,2-diamine]
IC50 [1]: 0.271 nM
IC50 (RK3E-Transgene KRAS): 1620 nM
IC50 [2]: 0.291 nM
sensitivity of cells harboring the FGFR fusions to the FGFR inhibitor in vitro [3]: showed sensitivity
IC50 [4]: 7010 nM

— US12037644B2, “Use of FGFR mutant gene panels in identifying cancer patients that will be responsive to treatment with an FGFR inhibitor” (Janssen Pharmaceutica NV, priority 2014, dated 2024)
